Assay results: paper PMC11162789
These are yes or no findings as the source states them, for the method shown. Binding seen in cells or lysates may run through a third protein. A yes stands for co-enrichment or nearness to the bait. Other partners may have been found.

Chains of the proteins cited; added tags and fusions are not shown. Lines headed by an entry give the natural chain unless they say otherwise; changes in a name come on top.
UniProt A0A509AVW6: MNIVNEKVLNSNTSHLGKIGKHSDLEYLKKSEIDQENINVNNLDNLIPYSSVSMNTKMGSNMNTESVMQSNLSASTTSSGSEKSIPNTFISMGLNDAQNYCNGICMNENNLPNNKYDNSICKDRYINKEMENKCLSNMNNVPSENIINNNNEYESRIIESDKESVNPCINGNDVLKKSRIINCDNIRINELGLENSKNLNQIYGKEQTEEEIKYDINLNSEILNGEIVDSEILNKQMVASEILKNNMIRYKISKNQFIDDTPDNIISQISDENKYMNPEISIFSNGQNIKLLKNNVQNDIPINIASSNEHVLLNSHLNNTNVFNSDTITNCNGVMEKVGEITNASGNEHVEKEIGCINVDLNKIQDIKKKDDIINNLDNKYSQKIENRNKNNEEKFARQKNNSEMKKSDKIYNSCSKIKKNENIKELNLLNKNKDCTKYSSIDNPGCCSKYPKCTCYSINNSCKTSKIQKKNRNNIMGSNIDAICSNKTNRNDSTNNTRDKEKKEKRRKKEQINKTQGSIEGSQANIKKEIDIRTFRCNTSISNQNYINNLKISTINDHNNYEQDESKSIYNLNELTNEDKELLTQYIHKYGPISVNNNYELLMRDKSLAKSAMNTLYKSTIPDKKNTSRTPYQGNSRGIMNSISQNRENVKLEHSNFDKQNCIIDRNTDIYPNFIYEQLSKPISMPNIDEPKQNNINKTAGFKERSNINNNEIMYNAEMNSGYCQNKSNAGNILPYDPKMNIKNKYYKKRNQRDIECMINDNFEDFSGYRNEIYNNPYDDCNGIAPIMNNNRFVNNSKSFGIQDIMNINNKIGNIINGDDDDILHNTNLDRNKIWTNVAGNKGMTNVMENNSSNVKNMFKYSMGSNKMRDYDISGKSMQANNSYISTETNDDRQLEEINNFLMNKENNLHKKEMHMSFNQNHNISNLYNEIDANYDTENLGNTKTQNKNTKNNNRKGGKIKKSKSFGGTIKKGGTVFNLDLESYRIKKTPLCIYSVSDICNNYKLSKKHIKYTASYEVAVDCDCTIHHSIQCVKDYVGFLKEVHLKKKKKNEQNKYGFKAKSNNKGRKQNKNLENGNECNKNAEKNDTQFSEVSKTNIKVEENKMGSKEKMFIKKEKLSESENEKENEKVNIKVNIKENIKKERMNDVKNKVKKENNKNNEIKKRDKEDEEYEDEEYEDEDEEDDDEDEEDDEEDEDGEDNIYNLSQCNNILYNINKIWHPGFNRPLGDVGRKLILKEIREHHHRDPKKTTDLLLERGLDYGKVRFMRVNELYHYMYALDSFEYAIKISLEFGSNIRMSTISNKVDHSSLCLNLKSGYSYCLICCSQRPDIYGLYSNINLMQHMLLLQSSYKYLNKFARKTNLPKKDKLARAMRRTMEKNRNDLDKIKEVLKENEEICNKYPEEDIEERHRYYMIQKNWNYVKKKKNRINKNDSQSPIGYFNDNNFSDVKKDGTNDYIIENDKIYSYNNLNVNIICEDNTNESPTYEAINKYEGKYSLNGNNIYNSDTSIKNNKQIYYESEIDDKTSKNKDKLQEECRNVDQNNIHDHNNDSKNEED
UniProt A0A509AN32: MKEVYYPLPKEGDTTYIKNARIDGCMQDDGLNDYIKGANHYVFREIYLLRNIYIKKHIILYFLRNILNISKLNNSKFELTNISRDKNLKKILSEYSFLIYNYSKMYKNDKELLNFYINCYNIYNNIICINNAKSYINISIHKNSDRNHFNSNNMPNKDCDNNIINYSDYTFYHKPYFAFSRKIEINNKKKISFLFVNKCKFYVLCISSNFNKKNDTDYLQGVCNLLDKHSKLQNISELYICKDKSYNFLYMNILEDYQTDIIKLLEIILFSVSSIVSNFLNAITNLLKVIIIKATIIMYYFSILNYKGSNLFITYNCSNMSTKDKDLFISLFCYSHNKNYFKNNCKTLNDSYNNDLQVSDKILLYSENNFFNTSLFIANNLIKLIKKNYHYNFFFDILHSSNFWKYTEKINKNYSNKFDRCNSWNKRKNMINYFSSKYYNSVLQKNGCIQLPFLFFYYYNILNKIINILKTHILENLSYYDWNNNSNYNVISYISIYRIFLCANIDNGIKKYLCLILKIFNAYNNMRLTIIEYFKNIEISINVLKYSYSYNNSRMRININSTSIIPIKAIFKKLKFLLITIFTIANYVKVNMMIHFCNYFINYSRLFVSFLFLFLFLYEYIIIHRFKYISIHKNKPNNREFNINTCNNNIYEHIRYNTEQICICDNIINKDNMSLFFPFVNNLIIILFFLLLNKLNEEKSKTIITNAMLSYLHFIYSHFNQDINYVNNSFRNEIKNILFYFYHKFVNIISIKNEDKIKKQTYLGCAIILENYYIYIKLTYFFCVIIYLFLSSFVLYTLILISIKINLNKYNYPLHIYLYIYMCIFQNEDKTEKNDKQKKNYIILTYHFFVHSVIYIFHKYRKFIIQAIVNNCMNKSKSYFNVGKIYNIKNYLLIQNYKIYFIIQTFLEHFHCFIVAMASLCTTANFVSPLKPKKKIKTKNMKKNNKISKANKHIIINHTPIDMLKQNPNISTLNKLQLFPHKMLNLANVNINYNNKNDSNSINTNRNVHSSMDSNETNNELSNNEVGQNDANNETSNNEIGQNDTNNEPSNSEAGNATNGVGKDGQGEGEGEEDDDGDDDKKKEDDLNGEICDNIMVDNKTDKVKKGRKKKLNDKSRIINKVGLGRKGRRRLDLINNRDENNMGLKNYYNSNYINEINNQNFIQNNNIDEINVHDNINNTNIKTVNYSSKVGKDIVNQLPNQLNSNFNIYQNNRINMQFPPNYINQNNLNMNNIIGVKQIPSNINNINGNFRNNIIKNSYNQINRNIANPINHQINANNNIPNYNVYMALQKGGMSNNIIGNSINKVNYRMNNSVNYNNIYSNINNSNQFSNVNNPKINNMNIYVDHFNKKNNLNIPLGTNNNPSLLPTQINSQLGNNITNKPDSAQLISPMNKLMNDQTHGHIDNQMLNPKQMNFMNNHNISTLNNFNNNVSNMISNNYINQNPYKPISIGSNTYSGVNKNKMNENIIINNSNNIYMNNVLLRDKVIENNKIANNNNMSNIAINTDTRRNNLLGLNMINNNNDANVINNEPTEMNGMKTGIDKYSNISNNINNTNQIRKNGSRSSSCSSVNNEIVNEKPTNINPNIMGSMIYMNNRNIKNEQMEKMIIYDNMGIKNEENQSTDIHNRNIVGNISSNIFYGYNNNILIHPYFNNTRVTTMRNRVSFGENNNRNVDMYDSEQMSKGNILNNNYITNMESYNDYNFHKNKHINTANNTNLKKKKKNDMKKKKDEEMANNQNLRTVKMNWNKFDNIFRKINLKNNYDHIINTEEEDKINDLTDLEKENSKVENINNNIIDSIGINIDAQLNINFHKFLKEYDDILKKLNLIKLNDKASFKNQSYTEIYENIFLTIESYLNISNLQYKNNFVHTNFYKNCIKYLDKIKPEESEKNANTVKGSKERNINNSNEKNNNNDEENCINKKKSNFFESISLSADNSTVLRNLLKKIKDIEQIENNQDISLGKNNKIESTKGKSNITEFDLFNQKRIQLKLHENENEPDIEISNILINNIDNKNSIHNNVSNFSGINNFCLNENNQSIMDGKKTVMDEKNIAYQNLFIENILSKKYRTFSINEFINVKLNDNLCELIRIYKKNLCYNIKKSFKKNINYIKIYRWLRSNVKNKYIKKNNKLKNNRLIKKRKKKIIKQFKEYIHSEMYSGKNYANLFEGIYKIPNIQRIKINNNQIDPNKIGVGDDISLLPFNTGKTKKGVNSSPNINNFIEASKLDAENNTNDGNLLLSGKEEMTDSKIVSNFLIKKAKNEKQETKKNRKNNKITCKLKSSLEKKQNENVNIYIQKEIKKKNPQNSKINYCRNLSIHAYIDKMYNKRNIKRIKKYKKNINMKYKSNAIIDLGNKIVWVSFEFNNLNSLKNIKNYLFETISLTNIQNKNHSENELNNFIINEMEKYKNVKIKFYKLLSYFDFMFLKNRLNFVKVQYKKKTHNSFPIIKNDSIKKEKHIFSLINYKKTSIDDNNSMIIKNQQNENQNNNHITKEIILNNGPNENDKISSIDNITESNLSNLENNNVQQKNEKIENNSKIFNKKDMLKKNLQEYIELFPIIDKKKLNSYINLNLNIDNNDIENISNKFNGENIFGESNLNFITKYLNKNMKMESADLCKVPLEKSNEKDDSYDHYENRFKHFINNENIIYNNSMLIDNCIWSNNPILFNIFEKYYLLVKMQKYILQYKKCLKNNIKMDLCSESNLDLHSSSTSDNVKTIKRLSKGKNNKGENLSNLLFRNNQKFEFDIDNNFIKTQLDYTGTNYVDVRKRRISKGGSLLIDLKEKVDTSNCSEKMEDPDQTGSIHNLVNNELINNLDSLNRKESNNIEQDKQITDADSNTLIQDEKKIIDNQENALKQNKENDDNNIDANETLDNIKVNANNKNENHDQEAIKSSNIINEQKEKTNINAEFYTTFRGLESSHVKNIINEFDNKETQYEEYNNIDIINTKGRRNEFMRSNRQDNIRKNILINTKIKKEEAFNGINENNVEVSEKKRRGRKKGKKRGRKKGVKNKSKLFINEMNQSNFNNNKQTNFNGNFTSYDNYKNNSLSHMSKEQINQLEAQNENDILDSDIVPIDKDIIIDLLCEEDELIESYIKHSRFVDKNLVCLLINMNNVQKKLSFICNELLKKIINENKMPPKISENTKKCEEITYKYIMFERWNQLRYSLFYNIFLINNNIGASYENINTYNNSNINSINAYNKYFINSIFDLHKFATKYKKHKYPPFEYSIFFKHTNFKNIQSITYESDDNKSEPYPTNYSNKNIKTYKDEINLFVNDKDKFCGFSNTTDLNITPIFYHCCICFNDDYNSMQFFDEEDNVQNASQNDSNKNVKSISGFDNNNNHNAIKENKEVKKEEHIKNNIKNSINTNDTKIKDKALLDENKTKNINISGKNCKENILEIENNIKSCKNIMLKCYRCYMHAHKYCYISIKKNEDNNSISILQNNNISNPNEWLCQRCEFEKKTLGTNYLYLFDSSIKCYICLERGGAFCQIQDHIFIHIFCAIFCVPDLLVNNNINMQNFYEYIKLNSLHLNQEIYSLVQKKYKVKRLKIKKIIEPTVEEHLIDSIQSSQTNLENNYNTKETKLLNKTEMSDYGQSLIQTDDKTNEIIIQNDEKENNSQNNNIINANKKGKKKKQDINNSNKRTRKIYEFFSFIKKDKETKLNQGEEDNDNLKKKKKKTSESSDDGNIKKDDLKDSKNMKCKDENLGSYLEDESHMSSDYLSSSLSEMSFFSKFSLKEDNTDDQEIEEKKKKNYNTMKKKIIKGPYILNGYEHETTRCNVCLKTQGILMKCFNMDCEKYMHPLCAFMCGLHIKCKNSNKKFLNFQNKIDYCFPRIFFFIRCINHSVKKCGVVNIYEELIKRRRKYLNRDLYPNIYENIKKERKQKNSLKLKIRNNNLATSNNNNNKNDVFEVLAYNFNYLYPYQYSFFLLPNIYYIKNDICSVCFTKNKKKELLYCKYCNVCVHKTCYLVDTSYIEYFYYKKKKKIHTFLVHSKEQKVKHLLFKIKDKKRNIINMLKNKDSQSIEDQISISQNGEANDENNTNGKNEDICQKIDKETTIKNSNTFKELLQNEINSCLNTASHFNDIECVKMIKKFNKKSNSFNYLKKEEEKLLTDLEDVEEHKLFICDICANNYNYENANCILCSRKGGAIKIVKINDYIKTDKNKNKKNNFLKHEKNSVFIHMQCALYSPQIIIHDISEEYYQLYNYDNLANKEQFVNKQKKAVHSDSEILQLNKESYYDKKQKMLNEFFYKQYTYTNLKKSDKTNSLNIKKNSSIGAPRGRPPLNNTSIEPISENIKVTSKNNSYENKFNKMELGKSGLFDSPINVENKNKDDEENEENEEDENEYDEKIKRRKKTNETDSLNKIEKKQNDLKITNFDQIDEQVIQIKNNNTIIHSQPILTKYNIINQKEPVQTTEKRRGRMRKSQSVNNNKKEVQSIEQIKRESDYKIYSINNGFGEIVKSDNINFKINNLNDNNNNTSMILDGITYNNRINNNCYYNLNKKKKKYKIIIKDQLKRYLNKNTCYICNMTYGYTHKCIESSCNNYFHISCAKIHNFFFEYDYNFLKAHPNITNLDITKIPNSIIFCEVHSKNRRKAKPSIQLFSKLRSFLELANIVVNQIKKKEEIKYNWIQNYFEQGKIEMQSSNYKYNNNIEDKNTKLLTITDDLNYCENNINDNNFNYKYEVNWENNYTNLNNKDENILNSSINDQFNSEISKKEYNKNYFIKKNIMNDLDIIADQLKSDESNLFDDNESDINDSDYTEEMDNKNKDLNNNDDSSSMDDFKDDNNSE

target: PbARID fused with GFP (PbARID::GFP) (P. berghei); assay: affinity purification with mass spectrometry; RIME (ChIP combined with MS): gametocyte-enriched PbARID::GFP parasites fixed with 1% formalin, lysed in SDS lysis buffer, sonicated; immunoprecipitated with anti-GFP polyclonal antibodies (Abcam ab290) on Dynabeads Protein A; on-bead trypsin digest, LC-MS/MS; compared with RIME of WT gametocytes; hits unique or more than five-fold enriched with P < 0.05; four independent experiments

binding, binds:
ADA2 (from UniProt A0A509AM07)
AP2-LT (from UniProt A0A509ANP9)
GCN5 (from UniProt A0A509AHP2)
MD2 (from UniProt A0A509AVW6)
PHD2 (from UniProt A0A509AN32)
PbSWI3 (from UniProt A0A509AUV4)
PbSWIB (from UniProt A0A509AJA1)
actin II (from UniProt Q4YU79 1-376)
actin-like protein ALP2B (from UniProt A0A509ARX1)
chromodomain-helicase-DNA-binding protein 1 (CHD1) (from UniProt A0A509AG56)
homeodomain-like protein 1 (HDP1) (from UniProt A0A509APT7)
